PubChem BioAssay AID1259405 | NCATS | 2018

Purpose: 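Silenced genes that increase secreted GFP made by CHO cells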 (primary screen)
Cell system: Chinese hamster CHO-K1 ovary cells with stable secreted eGFP expression
Reagent: single siRNA against mouse genes, 0.8 pmol siRNA per well (2 µl of 400 nM stock)
Time to read-out: 3 days
Detection: 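Percent of the per-plate non-targeting control median for intracellular GFP per well by laser scanning cytometry and for cell viability by ATP luminescence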
Direction: GFP, % of control: higher = more GFP per well, higher productivity
Rule for the call: 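a knock-down is called active if GFP reaches 120% or more of non-targeting control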
The deposit covers about 50,000 reagents; this is an unselected part. About 4,000 of them (8%) were called active. 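Mouse siRNA library applied to hamster cells; one well for each siRNA.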 A number with no mark means an inactive call. The numbers tell different reagents against one gene apart. Not all columns of the deposit are shown. No sequences are given here.

GFP, % of control, by gene and reagent
Stfa3 (GeneID 20863): #1 61.7; #2 85; #3 92.9
Rpusd2 (GeneID 271842): #1 88.3; #2 131 (active); #3 70.5
Rdh8 (GeneID 235033): #1 50.5; #2 53.4; #3 70.9
Spag9 (GeneID 70834): #1 80.6; #2 104
Grsf1 (GeneID 231413): #1 76.5; #2 61.6; #3 64.6
Vmn1r30 (GeneID 171195): #1 105; #2 124 (active); #3 130 (active)
Cimip2b (GeneID 329831): #1 84.6; #2 18.2; #3 66.8
Col19a1 (GeneID 12823): #1 62; #2 42.6; #3 83.1
Sh2d1b1 (GeneID 26904): #1 73; #2 98.2; #3 164 (active)
Rtn1 (GeneID 104001): #1 162 (active); #2 34.7; #3 77.2
Klra16 (GeneID 27424): #1 66.4; #2 96.7; #3 76
Kcnh2 (GeneID 16511): #1 91.3; #2 97; #3 76.9
Pigf (GeneID 18701): #1 76.1; #2 109; #3 82.7
Pus1 (GeneID 56361): #1 34.8; #2 91.6; #3 99.4
Chrne (GeneID 11448): #1 68.3; #2 42.8; #3 63.5
Vstm2b (GeneID 58188): #1 83.8; #2 115; #3 46.5
Zbtb49 (GeneID 75079): #1 45.5; #2 77.3; #3 79.8
E2f3 (GeneID 13557): #1 70.3; #2 112
Sh3bgrl (GeneID 56726): #1 114; #2 86.3; #3 80.1
Usp9y (GeneID 107868): #1 83.1; #2 47.9; #3 62.9
Actn2 (GeneID 11472): #1 84.9; #2 131 (active)
Zfp281 (GeneID 226442): #1 109; #2 80
Gnb2 (GeneID 14693): #1 173 (active); #2 48.4; #3 32.5
Tmed5 (GeneID 73130): #1 77.5; #2 57.8; #3 53.1
Spidr (GeneID 224008): #1 40.6; #2 31.7; #3 87.9
Dok5 (GeneID 76829): #1 87.5; #2 102; #3 92.6
Or8u10 (GeneID 259151): #1 79.5; #2 68.7; #3 128 (active)
Fez2 (GeneID 225020): #1 42.7; #2 79.4; #3 91.4
Xkr8 (GeneID 381560): #1 48.3; #2 51.8; #3 87.6
Vmn2r81 (GeneID 216144): #1 45.9; #2 57.6; #3 68.3
Mvb12a (GeneID 73711): #1 108; #2 58.3; #3 63.5
Trim3 (GeneID 55992): #1 61.6; #2 154 (active); #3 84.6
Herpud1 (GeneID 64209): #1 79.3; #2 111; #3 111
Nars1 (GeneID 70223): #1 74.1; #2 49.3; #3 120
Ctsa (GeneID 19025): #1 107; #2 77; #3 99.5
Rab29 (GeneID 226422): #1 59.6; #2 103; #3 78.1
Sirt3 (GeneID 64384): #1 49.6; #2 60.4; #3 95.9
